No constants are given. Whether binding was seen depends on the method and setting. Binding seen in cells or lysates may run through a third protein.
Assays:
Experiment in all cases: co-IP
[1] = biological target: SV40 ST F148A, CTAP-tagged (SV40)
[2] = biological target: SV40 ST P132A, CTAP-tagged (SV40)
[3] = biological target: SV40 ST R21A, CTAP-tagged (SV40)
[4] = biological target: SV40 ST W147A, CTAP-tagged (SV40)

Measured: binding

B1: STRN3, endogenous (protein, UniProt Q13033 1-797)
chain: MDELAGGGGGGPGMAAPPRQQQGPGGNLGLSPGGNGAAGGGGPPASEGAGPAAGPELSRPQQYTIPGILHYIQHEWARFEMERAHWEVERAELQARIAFLQGERKGQENLKKDLVRRIKMLEYALKQERAKYHKLKYGTELNQGDLKMPTFESEETKDTEAPTAPQNSQLTWKQGRQLLRQYLQEVGYTDTILDVRSQRVRSLLGLSNSEPNGSVETKNLEQILNGGESPKQKGQEIKRSSGDVLETFNFLENADDSDEDEENDMIEGIPEGKDKHRMNKHKIGNEGLAADLTDDPDTEEALKEFDFLVTAEDGEGAGEARSSGDGTEWDKDDLSPTAEVWDVDQGLISKLKEQYKKERKGKKGVKRANRTKLYDMIADLGDDELPHIPSGIINQSRSASTRMTDHEGARAEEAEPITFPSGGGKSFIMGSDDVLLSVLGLGDLADLTVTNDADYSYDLPANKDAFRKTWNPKYTLRSHFDGVRALAFHPVEPVLVTASEDHTLKLWNLQKTVPAKKSASLDVEPIYTFRAHIGPVLSLAISSNGEQCFSGGIDATIQWWNMPSPSVDPYDTYEPNVLAGTLVGHTDAVWGLAYSGIKNQLLSCSADGTVRLWNPQEKLPCICTYNGDKKHGIPTSVDFIGCDPAHMVTSFNTGSAVIYDLETSQSLVILSSQVDSGLQSNNHINRVVSHPTLPVTITAHEDRHIKFFDNKTGKMIHSMVAHLDAVTSLAVDPNGIYLMSGSHDCSIRLWNLDSKTCVQEITAHRKKLDESIYDVAFHSSKAYIASAGADALAKVFV
no binding: all assays above
